Assay results: patent US20190300875A1
No constants are given. Whether binding was seen depends on the method and setting. In cells and extracts the contact can be indirect. Some binding calls cover weakened binding; strength is not graded here. For some assays here: Sequences can lack the tags named with a protein. Blank lines part the entries; values can stand above or below the binder they belong to.

Columns and labels:
[1] = molecular target: human cryptochrome 2 (hCRY2) (human) (UniProt Q49AN0); test: co-IP, HEK293T cells, control experiment
[2] = molecular target: human cryptochrome 2 (hCRY2) (human) (UniProt Q49AN0); test: co-IP (Flag-CRY with Myc-CRY) and qCo-IP (FLUC-CRY with REN-CRY) in HEK293T cells, blue light against dark (FIG. 10)
Flag-hCRY2 (human) [3] = molecular target: T1, Flag-hCRY2 (human) (UniProt Q49AN0); test: co-IP with anti-Flag beads, HEK293T cells (FIG. 11)
T1 sequence (looked up): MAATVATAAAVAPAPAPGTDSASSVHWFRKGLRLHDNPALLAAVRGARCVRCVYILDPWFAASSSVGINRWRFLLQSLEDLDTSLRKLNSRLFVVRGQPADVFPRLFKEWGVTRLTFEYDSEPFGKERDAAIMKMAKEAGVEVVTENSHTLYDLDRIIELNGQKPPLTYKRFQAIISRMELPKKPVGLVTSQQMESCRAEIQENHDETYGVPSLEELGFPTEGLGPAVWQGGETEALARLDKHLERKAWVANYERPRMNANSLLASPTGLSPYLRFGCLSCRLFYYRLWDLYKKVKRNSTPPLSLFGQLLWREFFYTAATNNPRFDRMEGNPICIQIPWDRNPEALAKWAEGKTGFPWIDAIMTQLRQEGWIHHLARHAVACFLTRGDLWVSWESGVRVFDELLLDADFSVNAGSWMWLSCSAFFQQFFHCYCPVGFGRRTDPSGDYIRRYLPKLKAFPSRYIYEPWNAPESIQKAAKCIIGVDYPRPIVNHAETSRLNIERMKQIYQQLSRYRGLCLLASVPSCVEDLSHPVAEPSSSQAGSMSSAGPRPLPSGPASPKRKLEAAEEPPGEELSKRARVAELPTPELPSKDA

Flag-hCRY2 (human) [4] = molecular target: T1, Flag-hCRY2 (human); test: co-IP with anti-Flag beads, HEK293T cells co-expressing Flag-hCRY, Myc-hCRY and GFP-BIC1 or GFP
Flag-hCRY2 (human) [5] = molecular target: T1, Flag-hCRY2 (human); test: co-IP with anti-Flag beads, HEK293T cells co-expressing Flag-hCRY, Myc-hCRY and GFP-BIC1 or GFP (FIG. 11)

binding [1]: binds | binding [2]: binds
B1: human cryptochrome 2 (hCRY2) (protein, UniProt Q49AN0 1-593, looked up)
chain: T1 sequence (looked up)

binding (Flag-hCRY2 (human) [3]): binds | binding (Flag-hCRY2 (human) [4]): binds | binding (Flag-hCRY2 (human) [5]): binds
B2: GFP-BIC1 (protein, not shown: large carriers)
chain: MMNIDDTTSPMAHPIGPSQPPSDQTKQDPPSLPQEAASSVSADKKDLALLEEKPKQSQEEDRVDTGRERLKKHRREIAGRVWIPEIWGQEELLKDWIDCSTFDTCLVPAGISSARTALVEEARRAASASGGLHNRCLILR
